Our source for the cell number change and AC50 values is PubChem BioAssay AID2685 (National Center for Advancing Translational Sciences (NCATS), 2010).

Some of the results follow. The main result of the screen is listed elsewhere. These columns were measured beside it and carry no call. Compounds called inactive in the main read-out are mostly missing here. Words in brackets tell the shape of the fitted curve; partial curves, single points and poor fits give uncertain potencies.

The nature of the assay: qHTS Assay for Lipid Storage Modulators in Drosophila S3 Cells.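 For cell number change: cells counted by Cell Tracker Red CMTPX staining in the red channel.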 The note with it: BODIPY lipid droplet fluorescence, 18-24 h; for cell number change: measured here: cell count max response, cells fed with added oleic acid. In a few lines:
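Drosophila S3 cells loaded with oleic acid (400 uM, as added) and compounds at several concentrations; lipid droplets imaged by 488-nm laser-scanning cytometry, 500–530 nm intensity and object ratio to cell channel. Percent activity normalized to 20 uM Triacsin C.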

Where [1] appears, read: measured here: lipid fluorescence (Fed channel) AC50, cells fed with added oleic acid.
[2] abbreviates: measured here: cell number channel AC50, cells fed with added oleic acid.

As for `COc1ccc(/C=N/NC(=O)c2c(-c3ccccc3)noc2C)cc1[N+](=O)[O-]`, the cell number change came out at 22.5%. Under setting [1], the AC50 is 4.61 µM [rising, full curve].
As for `O=C(NCc1ccco1)C1CCCN1S(=O)(=O)c1ccc2ccccc2c1` (stereo not drawn), under setting [2], the concentration at half-maximal activity (AC50) is 2.59 µM [rising, single point].
Turning to `N/C(COc1ncn(-c2ccccc2)n1)=N\S(=O)(=O)c1ccc(Cl)cc1Cl`, the cell number change amounted to 150%. Further, the AC50 under setting [2] is 29.1 µM [rising, single point].
Turning to `Cc1ccc(Sc2ccc(NC(=O)c3ccc(S(C)(=O)=O)cc3Cl)cc2)cc1`, the cell number change was -46.1%. Further, the half-maximal activity concentration (AC50) under setting [2] is 29.1 µM [falling, single point]. For the same molecule, the AC50 under setting [1] is 11.6 µM [falling, partial curve, poor fit].
As to `COCc1ccc(C(=O)N2CCCC(CNC(=O)c3ccc(F)cc3)C2)o1` (stereo not drawn), the cell number change was determined as 7.33%.
In the case of `COC(=O)c1sccc1NC(=O)Nc1ccc(Cl)c(Cl)c1`, the cell number change was found to be 25%. In addition, the AC50 under setting [2] was 3.66 µM [rising, single point].
Regarding `Cc1nn(-c2ccc(F)cc2)c(Cl)c1C(=O)N(C)CC(=O)Nc1cccc(F)c1`, the cell number change is 75%.
For the molecule `CCOC(=O)c1cc2cc(-c3c(C(=O)OCC)oc4cc(O)cc(O)c4c3=O)ccc2o1`, the cell number change is -45.1%. The AC50 under setting [2] was 16.4 µM [falling, single point]. Moreover, the concentration at half-maximal activity (AC50) under setting [1] is 32.6 µM [falling, single point].
Take `CCc1noc(C)c1C(=O)N1CCCC(CCC(=O)NCc2ccc(F)c(F)c2)C1` (stereo not drawn): the cell number change is -21.7%. Moreover, under setting [1], the concentration at half-maximal activity (AC50) is 10.3 µM [falling, partial curve].
Take `COc1cc(CCN2C(=O)N[C@@H](CCc3ccccc3)C(C(C)=O)=C2C)cc(OC)c1OC`: the cell number change came to 16.5%. In addition, the AC50 under setting [1] was 0.82 µM [rising, full curve].
For the molecule `CCOC(=O)CC(=O)CSc1nc2c(C)c(C)ccc2cc1C`, under setting [1], the AC50 was 2.91 µM [rising, partial curve].
Turning to `COc1ccc(S(=O)(=O)N(C)CC(=O)NCc2ccc3c(c2)OCO3)cc1`, the concentration at half-maximal activity (AC50) under setting [1] is 2.91 µM [falling, partial curve].
Regarding `CCN(CC)c1ccc(NC(=S)NC(=O)C2CCC2)cc1`, the half-maximal activity concentration (AC50) under setting [1] is 3.26 µM [falling, partial curve].
In the case of `CCOC(=O)C1CCCN(CC(=O)Nc2c(F)c(F)c(F)c(F)c2F)C1` (stereo not drawn), the cell number change was 1.28%.
Still for that read-out and setting: next, `CCn1c(SCC(=O)N2CCCC(C)C2)nnc1-c1ccco1` (stereo not drawn): 11.4%.
For `CCOc1ccc(NC(=O)c2cc(F)c(F)cc2Cl)cc1OCC`, the cell number change worked out at 12.1%. The concentration at half-maximal activity (AC50) under setting [1] is 3.26 µM [rising, single point].
With `CCCCNC(=O)c1sc2ncnc(N3CCc4ccccc4C3)c2c1C`, the cell number change was -14.5%.
Consider `Cc1ccc(-c2nnc(Nc3ccccc3)o2)cc1`, for which, under setting [2], the AC50 was 0.164 µM [falling, full curve, poor fit].
With `Cc1ccc(-c2cc(C(=O)NC3=NCCS3)c3cc(Br)ccc3n2)o1`, under setting [1], the half-maximal activity concentration (AC50) was 6.51 µM [rising, partial curve, poor fit].
With `Cc1ccc(C(=O)N[C@@H](Cc2ccccc2)C(=O)N2CCC3(CC2)NCCc2[nH]cnc23)cc1C`, the cell number change was -2.97%. In addition, the AC50 under setting [1] was 6.51 µM [falling, single point].
For `CCOCc1nnc(NC(=O)c2ccc(NC(C)=O)cc2)s1`, the cell number change was -15.9%. Further, the half-maximal activity concentration (AC50) under setting [1] is 0.082 µM [falling, full curve, poor fit].
Turning to `O=C(N/N=C/c1ccc([N+](=O)[O-])o1)C(O)c1ccccc1` (stereo not drawn), the cell number change is -59.7%. In addition, under setting [2], the AC50 was 6.51 µM [falling, full curve]. The AC50 under setting [1] was 1.3 µM [falling, full curve].
For `CC(=O)N1N=C(c2ccccc2)CC1c1ccccc1` (stereo not drawn), the cell number change was found to be 10.3%. Also, the AC50 under setting [1] was 0.092 µM [rising, full curve, poor fit].
Take `CN(C)S(=O)(=O)c1cccc(NC(=O)COC(=O)/C=C/c2ccco2)c1`: the cell number change was -35%. Also, the concentration at half-maximal activity (AC50) under setting [2] was 0.231 µM [falling, full curve]. Moreover, the AC50 under setting [1] is 2.59 µM [falling, full curve, poor fit].
Consider `COc1ccccc1C(CNC(=O)c1ccc(OCc2c(C)noc2C)cc1)N1CCCC1` (stereo not drawn), for which the cell number change was determined as 21.7%. Also, the concentration at half-maximal activity (AC50) under setting [1] was 29.1 µM [rising, single point].
For the molecule `COc1ccc(NC2CCCN(C(=O)CSc3ccccc3)C2)cc1OC` (stereo not drawn), the cell number change is -13.8%. The concentration at half-maximal activity (AC50) under setting [1] is 16.4 µM [falling, single point].
With `O=C(c1cc2cc(F)ccc2[nH]1)N1CCN(c2cccc(Cl)c2)CC1`, the cell number change worked out at 35.1%. Further, the half-maximal activity concentration (AC50) under setting [2] is 0.231 µM [rising, full curve, poor fit].
Turning to `CN1CCN(c2ccc(NC(=O)CN3CCOCC3)cc2F)CC1`, the cell number change was -24.3%.
With `O=C(NCC(=O)N1CCCCC1)c1ccc2ccccc2c1`, the cell number change turned out to be 16.2%. Also, under setting [1], the AC50 is 16.4 µM [rising, single point].
Take `O=C1CCCC2=C1C1O[C@](CCCCN3C(=O)c4ccccc4C3=O)(Cc3c1ccc1ccccc31)O2`: the cell number change is 0.0835%. The AC50 under setting [1] is 0.596 µM [rising, single point].
`O=C1CCC/C1=C\Nc1ccc(Cl)c([N+](=O)[O-])c1`: the cell number change was determined as 21.9%. The AC50 under setting [2] was 0.00461 µM [rising, full curve, poor fit]. Besides, the AC50 under setting [1] was 0.00517 µM [rising, full curve, poor fit].
For the molecule `CCCCCCn1ccc(=N)cc1`, the cell number change is -42%. Besides, under setting [2], the AC50 was 4.11 µM [falling, partial curve]. Besides, the half-maximal activity concentration (AC50) under setting [1] is 13 µM [falling, partial curve].
Consider `CC(C)NC(=O)c1sc(=S)n2c1[nH]c(=O)c1ccc(C(=O)NCCc3ccc(Cl)cc3)cc12`, for which, under setting [1], the AC50 is 0.366 µM [falling, partial curve].
Regarding `O=C(c1ccccc1Cl)N1CCN(S(=O)(=O)N2CCCCC2)CC1`, the cell number change is 11.7%. Also, the AC50 under setting [1] is 29.1 µM [rising, single point].
As for `CCc1ccc(-c2nc(CS(=O)CC(=O)NCCCN3CCOCC3)c(C)o2)cc1` (stereo not drawn), the cell number change is 9.13%. For the same molecule, under setting [1], the AC50 was 29.1 µM [rising, single point].
With `COc1cccc2c1cc1c(=O)n(CC(=O)N3CCC(C)CC3)nc(C)n12`, the concentration at half-maximal activity (AC50) under setting [1] is 0.517 µM [rising, partial curve].
Consider `Cc1nc(-c2nc(-c3c(C(=O)NNC(=O)Nc4ccccc4)noc3C)cs2)cs1`, for which the cell number change worked out at 24.9%. The AC50 under setting [1] was 2.06 µM [rising, full curve, poor fit].
In the case of `CCOc1ccc2[nH]c(=O)c(CN(Cc3nnnn3CCc3ccccc3)CC3CCCO3)cc2c1` (stereo not drawn), the cell number change was -29%. Besides, the AC50 under setting [1] was 16.4 µM [falling, single point].
Take `O=C(COS(=O)c1ccccc1)Nc1cc(Cl)ccc1N1CCOCC1` (stereo not drawn): the cell number change is -38.2%. In addition, the AC50 under setting [2] is 5.17 µM [falling, full curve]. The half-maximal activity concentration (AC50) under setting [1] is 6.51 µM [falling, full curve].
With `COc1cc(C(=O)NC(=S)Nc2ccc(Cl)cn2)cc(OC)c1OC`, the cell number change is 4.58%. The AC50 under setting [1] is 29.1 µM [rising, single point].
`COc1ccccc1NC(=O)C(C)N1C(=O)C2CCCCC2C1=O` (stereo not drawn): the cell number change was 17%. In addition, under setting [1], the concentration at half-maximal activity (AC50) was 29.1 µM [rising, single point].
Regarding `CCN(Cc1ccc(OC)c(COC)c1)CC1CCCN(CCc2cccc(F)c2)C1` (stereo not drawn), the cell number change is -6.22%. The AC50 under setting [1] is 0.731 µM [rising, single point].
Regarding `CN(c1cccc(Cl)c1)S(=O)(=O)c1cccc(C(=O)NN2CCOCC2)c1`, the cell number change is -32%. Also, under setting [2], the half-maximal activity concentration (AC50) was 8.2 µM [falling, partial curve, poor fit]. Besides, the AC50 under setting [1] was 6.51 µM [falling, full curve, poor fit].
In the case of `COc1cc(OC)c(C(=O)N(CCc2ccccc2)Cc2ccccc2)cc1OC`, the cell number change is -37.6%. Under setting [2], the AC50 is 31.6 µM [falling, single point].
Consider `O=C(c1ccc(Cl)cc1)N1CCCCC(Cl)C1=O` (stereo not drawn), for which the cell number change was -37%. Besides, under setting [1], the concentration at half-maximal activity (AC50) was 7.31 µM [falling, partial curve].
Consider `CS(=O)(=O)N1CCCC(C(=O)N2CCOCC2)C1` (stereo not drawn), for which the cell number change was -42.8%. Under setting [2], the AC50 is 18.4 µM [falling, single point]. The concentration at half-maximal activity (AC50) under setting [1] is 29.1 µM [falling, single point].
As to `Oc1[nH]c2ccccc2c1N=Nc1ccc(F)cc1`, the concentration at half-maximal activity (AC50) under setting [1] is 11.6 µM [falling, partial curve].
For the molecule `Cc1ccc2cc(C(c3nnnn3Cc3ccccc3)N3CCc4ccccc43)c(=O)[nH]c2c1` (stereo not drawn), the cell number change was 16.5%. In addition, under setting [2], the AC50 is 0.411 µM [rising, partial curve, poor fit]. Also, the half-maximal activity concentration (AC50) under setting [1] was 6.51 µM [rising, partial curve].
On to `O=C1Nc2ccccc2C12OCCCCO2`, for which the cell number change was determined as 8.19%. The AC50 under setting [1] is 0.326 µM [rising, full curve, poor fit].
Regarding `COc1ccc(C2CC(c3cccs3)=NN2C(=S)Nc2ccccc2)cc1OC` (stereo not drawn), the cell number change was 0.195%. In addition, the concentration at half-maximal activity (AC50) under setting [1] is 0.366 µM [rising, single point].
On to `COc1ccc(-n2cc(CN(C)CCO)c(-c3cccc(F)c3)n2)cc1`, for which the cell number change is -23.8%. Also, under setting [1], the AC50 was 29.1 µM [falling, partial curve, poor fit].
On to `Cc1cc(C)c(NC(=O)CN2CCN(c3ccccn3)CC2)c(C)c1`, for which the cell number change was -4.67%. Under setting [1], the half-maximal activity concentration (AC50) is 6.51 µM [rising, single point].
`CC1(C)CC(NC(=O)C2CCCCC2C(=O)O)CC(C)(C)N1` (stereo not drawn): the cell number change was 4.49%. The AC50 under setting [1] is 0.146 µM [falling, full curve, poor fit].
As to `Cc1ccc(S(=O)(=O)NC(=S)NC2CCCCC2)cc1`, the cell number change stood at 33.2%. Besides, the concentration at half-maximal activity (AC50) under setting [2] is 20.6 µM [rising, single point]. For the same molecule, the AC50 under setting [1] was 8.2 µM [rising, partial curve, poor fit].
As for `Cc1ccc(-n2nc3c(=O)n(C(C)C(=O)NCc4ccc5c(c4)OCO5)nc(C)c3c2C)cc1` (stereo not drawn), the cell number change was -22.4%. Moreover, the AC50 under setting [1] was 6.51 µM [rising, single point].
For `O=C(CSc1nnc(Cc2cc(=O)[nH]c(=O)[nH]2)n1-c1ccc(Cl)cc1)N1CCc2ccccc21`, the cell number change is 3.35%. Moreover, the AC50 under setting [1] was 6.51 µM [rising, single point].
`COc1ccc2c(c1)c(CCN1C(=O)c3ccccc3C1=O)cn2C(=O)c1ccco1`: the cell number change is -6.34%. Also, the AC50 under setting [1] is 29.1 µM [rising, single point].
For `CCCCC(=O)Nc1nc2c(OC)ccc(OC)c2s1`, the cell number change came to 43.1%. Besides, the AC50 under setting [2] was 25.9 µM [rising, single point]. Further, the AC50 under setting [1] is 10.3 µM [rising, partial curve, poor fit].

The term AC50 denotes the concentration giving half of the maximal activity seen. Read a high AC50 as weaker potency.
